# Negatives hold for the conditions tested.
# Biological target: Human serum albumin (HSA) (Homo sapiens) (UniProt P02768)
# Test: FO-SPR
# Conditions: no discernible signal variation with varying HSA in PBS; 5'-AminoC6; PBS (immobilization and rinse PBS pH 7.4); FO-SPR 10 min per concentration step; aptamer folded 95 C 5 min, ice 15 min, RT 5 min; assay temperature not stated; single-stranded DNA
sequence,measurement,value
CTTCCAACGCTCGTATTGTCAGTCTTTAGT [IL-6 specific aptamer (Apt)],binding result,no binding
